Test results as given in patent US5328830A, “Potassium channel modulators” (Miles Inc., priority 1992, dated 1994).

System: CMPD-I-sensitive, K^+ channel binding site
Assay: [^3 H]CMPD-I ligand binding to intact RINm5F cells
Parameters: species or system rat
Procedure: The cells were fed three times a week and passed weekly with 0.25% trypsin/0.02% EDTA (JRH Biosciences, Lenexa, Kans.). For intact cell binding experiments, RINm5F cells were plated onto 60 mm polystyrene petri dishes (Corning) at 5×10^6 cells/dish and grown for 3 days without a change of media. Alternatively, cells were seeded 1×10^6 cells/dish and grown for 7 days with the last feeding two days prior to use. Final cell density was 10-20 ×10^6 cells/dish. […] Intact cell binding was performed with the cells attached to the dishes. Binding was terminated by three successive 3 ml washes of cold (4° C.) buffer. Cells were removed from the dish in 1.6 ml of 0.5 N NaOH, briefly sonicated and radioactivity was quantitated with a liquid scintillation counter using 10 ml cocktail (Ultima Gold, Packard). Statistical analysis to determine KD and BMax was accomplished using nonlinear regression (Enzfitter, Elsevier-Biosoft, Cambridge, UK). IC50 values were determined using a sigmoidal fit of mean percent inhibition versus log of concentration. […] Each sample was counted for at least one minute by a liquid scintillation system set for counting tritium. Total protein content of each dish was determined by the method of Bradford with bovine serum albumin used as the standard. […] IC50 values were calculated from the plot of the fraction of maximal inhibition versus Log of concentration (Enzfitter, Id.).

What does the source list for `[3H]c1cc([3H])c(NC(=C[N+](=O)[O-])NC(C)C(C)(C)C)c(OCC)c1` (single isomer, unassigned) [[^3 H]CMPD-I]?
BMax (Scatchard analysis (FIG. 3)): 42 fmol/mg total protein; BMax (determined by saturation analysis): 50 fmol/mg total protein
